Assay results from paper PMC4383067.
These are yes or no findings as the source states them, for the method shown. Some entries that bind do so weakly or less than the wild type.

How the values were obtained:
[1] = target: Amyloid fibrils of full-length human PrP (human) (UniProt P04156); assay: immunogold electron microscopy; both purified
[2] = target: Amyloid fibrils of full-length human PrP (human) (UniProt P04156); assay: co-sedimentation; both purified
[3] = target: Full-length human PrP (monomeric, recombinant) (human) (UniProt P04156); assay: cross-linking; both purified

Measured: binding

Full-length human acetylcholinesterase (dimeric, recombinant) (from UniProt P22303 32-614) (enzyme)
binds: all assays above
